The list shows a part of the results. Single values are uncertain, as repeats are few or missing.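 The apoptosis fraction was the count of cleaved-PARP antibody-stained nuclei relative to all DNA-stained nuclei, imaged in 1,536-well plates. Screening doses were set so most cells survived, and baseline and induced cleaved-PARP levels vary greatly across cell lines.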

The test system of the first assay is RVH-421. Put plainly: cleaved PARP positive nuclei fraction relative to DMSO control; melanoma cells; higher = more apoptosis. Conditions: library dose: low library concentration; 72 h.
For `CN1CCN(c2ccc3nc(-c4c(N)c5c(F)cccc5[nH]c4=O)[nH]c3c2)CC1` [Dovitinib] + NCC(=O)Nc1ccc(-n2nc(C(F)(F)F)cc2-c2ccc3c(ccc4ccccc43)c2)cc1 [OSU03012] (first compound 0.1 µM, partner dose 1 µM), the “cleaved PARP positive nuclei fraction” value amounted to 40.8%.
Still for that read-out and setting: then `C=C(c1ccc(C(=O)O)cc1)c1cc2c(cc1C)C(C)(C)CCC2(C)C` [Bexarotene] + Cc1cc([N+](=O)[O-])ccc1NS(=O)(=O)c1cc(Cl)ccc1Cl [FH535] (first compound 2 µM, partner dose 1 µM), with 151%; and `Cc1cc(Nc2cc(N3CCN(C)CC3)nc(/C=C/c3ccccc3)n2)n[nH]1` + COC(=O)c1sccc1S(=O)(=O)Nc1ccc(Nc2ccccc2)cc1OC [GSK0660] (first compound 0.04 µM, partner dose 1 µM), with 197%.
Still for that read-out and setting: then `CC(C)C[C@H](NC(=O)[C@H](Cc1ccccc1)NC(=O)c1cnccn1)B(O)O` [Bortezomib] + Cc1cc([N+](=O)[O-])ccc1NS(=O)(=O)c1cc(Cl)ccc1Cl [FH535] (first compound 0.001 µM, partner dose 1 µM), with 171%; and `CC(C)C[C@H](NC(=O)[C@H](Cc1ccccc1)NC(=O)c1cnccn1)B(O)O` [Bortezomib] + O=C(CCCCCCC(=O)Nc1ccccc1)NO [vorinostat] (first compound 0.001 µM, partner dose 0.08 µM), with 126%.
`Nc1ncn([C@H]2C[C@H](O)[C@@H](CO)O2)c(=O)n1` [decitabine] + COc1ccc2c(c1)CCC1C2CCC2(C)C(NCCCCCCN3C(=O)C=CC3=O)CCC12 [U73122] (first compound 0.1 µM, partner dose 0.4 µM): the “cleaved PARP positive nuclei fraction” value worked out at 1080%.

A further assay relates to SkMel28. The assay is described as above. Conditions: library dose: low library concentration; 72 h.
In the case of `Nc1ncn([C@H]2C[C@H](O)[C@@H](CO)O2)c(=O)n1` [decitabine] + COc1ccc(-c2ccc3c(N4CCOCC4)nc(N4C[C@@H](C)O[C@@H](C)C4)nc3n2)cc1CO [KU0063794] (first compound 0.1 µM, partner dose 0.02 µM), the “cleaved PARP positive nuclei fraction” value amounted to 66.5%.
Regarding `CS(=O)(=O)CCNCc1ccc(-c2ccc3ncnc(Nc4ccc(OCc5cccc(F)c5)c(Cl)c4)c3c2)o1` [lapatinib] + O=S(=O)(c1ccccc1)N(CC(F)(F)F)c1ccc(C(O)(C(F)(F)F)C(F)(F)F)cc1 [T0901317] (first compound 0.8 µM, partner dose 1.4 µM), the “cleaved PARP positive nuclei fraction” value amounted to 94.4%.
For the molecule `Nc1ccn([C@@H]2O[C@H](CO)[C@@H](O)C2(F)F)c(=O)n1` [gemcitabine] + CC1(C)NC(=O)N(c2ccc([N+](=O)[O-])c(C(F)(F)F)c2)C1=O [nilutamide] (first compound 0.0004 µM, partner dose 1 µM), the “cleaved PARP positive nuclei fraction” value is 28.7%.
The same measure, in the same setting: then `CCCS(=O)(=O)Nc1ccc(F)c(C(=O)c2c[nH]c3ncc(Cl)cc23)c1F` + O=C1NC(=O)/C(=C/c2ccc(-c3ccc(F)cc3O)o2)S1 [AS252424] (first compound 0.08 µM, partner dose 1 µM), with 93.4%; and `CNC(=O)c1cc(Oc2ccc(NC(=O)Nc3ccc(Cl)c(C(F)(F)F)c3)cc2)ccn1` [sorafenib] + C[C@@H]1CCN(C(=O)CC#N)C[C@@H]1N(C)c1ncnc2[nH]ccc12 [CP690550] (first compound 0.4 µM, partner dose 1 µM), with 488%.
The same measure, in the same setting: then `Cc1cc(Nc2cc(N3CCN(C)CC3)nc(/C=C/c3ccccc3)n2)n[nH]1` + CN(C)S(=O)(=O)c1ccc2c(c1)/C(=C/c1cc3c([nH]1)CCCC3)C(=O)N2 [SU6656] (first compound 0.04 µM, partner dose 0.4 µM), with 34.4%; and `Nc1ncn([C@H]2C[C@H](O)[C@@H](CO)O2)c(=O)n1` [decitabine] + CCCCCCCCCCCC1=C(O)C(=O)C=C(O)C1=O [Embelin] (first compound 0.1 µM, partner dose 1.2 µM), with 92.7%; and `Nc1nc(F)nc2c1ncn2[C@@H]1O[C@H](CO)[C@@H](O)[C@@H]1O` [fludarabine] + CCCCCCCCCCCC1=C(O)C(=O)C=C(O)C1=O [Embelin] (first compound 0.2 µM, partner dose 1.2 µM), with 88.4%.
Still for that read-out and setting: then `O=C(O)c1ccc2c(c1)nc(Nc1cccc(Cl)c1)c1ccncc12` + COc1ccc2c(c1)CCC1C2CCC2(C)C(NCCCCCCN3C(=O)C=CC3=O)CCC12 [U73122] (first compound 0.4 µM, partner dose 0.4 µM), with 104%; and `Nc1ccn([C@@H]2O[C@H](CO)[C@@H](O)C2(F)F)c(=O)n1` [gemcitabine] + CO[C@@H]1[C@H](N(C)C(=O)c2ccccc2)C[C@H]2O[C@]1(C)n1c3ccccc3c3c4c(c5c6ccccc6n2c5c31)C(=O)NC4 [Midostaurin] (first compound 0.0004 µM, partner dose 0.08 µM), with 54.9%; and `CN1CCN(c2ccc3nc(-c4c(N)c5c(F)cccc5[nH]c4=O)[nH]c3c2)CC1` [Dovitinib] + O=C(O)C(=O)Nc1sc2c(c1C(=O)O)CCNC2 [TCS401] (first compound 0.1 µM, partner dose 1.66667 µM), with 85%.
`Nc1ncn([C@H]2C[C@H](O)[C@@H](CO)O2)c(=O)n1` [decitabine] + COC(=O)c1sccc1S(=O)(=O)Nc1ccc(Nc2ccccc2)cc1OC [GSK0660] (first compound 0.1 µM, partner dose 1 µM): the “cleaved PARP positive nuclei fraction” value stood at 109%.
Take `Cc1cc(Nc2cc(N3CCN(C)CC3)nc(/C=C/c3ccccc3)n2)n[nH]1` + Cc1cc(N2CCOCC2)cc2[nH]c(-c3c(NC[C@@H](O)c4cccc(Cl)c4)cc[nH]c3=O)nc12 [BMS536924] (first compound 0.04 µM, partner dose 0.2 µM): the “cleaved PARP positive nuclei fraction” value worked out at 132%.
Still for that read-out and setting: then `Cn1c(=O)n(-c2ccc(C(C)(C)C#N)cc2)c2c3cc(-c4cnc5ccccc5c4)ccc3ncc21` + NC(=O)Nc1cc(-c2cccc(F)c2)sc1C(=O)N[C@H]1CCCNC1 [AZD7762] (first compound 0.004 µM, partner dose 0.02 µM), with 128%; and `C=C(c1ccc(C(=O)O)cc1)c1cc2c(cc1C)C(C)(C)CCC2(C)C` [Bexarotene] + O=C(Nc1ccccc1)c1cc([N+](=O)[O-])ccc1Cl [GW9662] (first compound 2 µM, partner dose 2 µM), with 105%.
On the same count and under the same terms, then `CNC(=O)c1cc(Oc2ccc(NC(=O)Nc3ccc(Cl)c(C(F)(F)F)c3)cc2)ccn1` [sorafenib] + COC(=O)c1sccc1S(=O)(=O)Nc1ccc(Nc2ccccc2)cc1OC [GSK0660] (first compound 0.4 µM, partner dose 1 µM), with 136%; and `CNC(=O)c1cc(Oc2ccc(NC(=O)Nc3ccc(Cl)c(C(F)(F)F)c3)cc2)ccn1` [sorafenib] + CCCCCCCCCCCC1=C(O)C(=O)C=C(O)C1=O [Embelin] (first compound 0.4 µM, partner dose 1.2 µM), with 106%; and `CS(=O)(=O)CCNCc1ccc(-c2ccc3ncnc(Nc4ccc(OCc5cccc(F)c5)c(Cl)c4)c3c2)o1` [lapatinib] + CN(C)S(=O)(=O)c1ccc2c(c1)/C(=C/c1cc3c([nH]1)CCCC3)C(=O)N2 [SU6656] (first compound 0.8 µM, partner dose 0.4 µM), with 69.3%.
Same read-out and setting: then `C[C@@H](Oc1cc(-c2cnn(C3CCNCC3)c2)cnc1N)c1c(Cl)ccc(F)c1Cl` [Crizotinib] + CCCCCCCCCCCC1=C(O)C(=O)C=C(O)C1=O [Embelin] (first compound 0.2 µM, partner dose 1.2 µM), with 118%.
As for `Nc1nc(F)nc2c1ncn2[C@@H]1O[C@H](CO)[C@@H](O)[C@@H]1O` [fludarabine] + Cc1cc(N2CCOCC2)cc2[nH]c(-c3c(NC[C@@H](O)c4cccc(Cl)c4)cc[nH]c3=O)nc12 [BMS536924] (first compound 0.2 µM, partner dose 0.2 µM), the “cleaved PARP positive nuclei fraction” value was determined as 167%.
Same read-out and setting: then `Cc1cc(Nc2cc(N3CCN(C)CC3)nc(/C=C/c3ccccc3)n2)n[nH]1` + COc1ccc(COc2ccc(Cc3cnc(N)nc3N)cc2OC)cc1 [GW2580] (first compound 0.04 µM, partner dose 1 µM), with 216%; and `CNC(=O)c1cc(Oc2ccc(NC(=O)Nc3ccc(Cl)c(C(F)(F)F)c3)cc2)ccn1` [sorafenib] + NCC(=O)Nc1ccc(-n2nc(C(F)(F)F)cc2-c2ccc3c(ccc4ccccc43)c2)cc1 [OSU03012] (first compound 0.4 µM, partner dose 1 µM), with 142%.
`Cc1cc(Nc2cc(N3CCN(C)CC3)nc(/C=C/c3ccccc3)n2)n[nH]1` + OCCn1cc(-c2cnc3nnn(Cc4ccc5ncccc5c4)c3n2)cn1 [PF04217903] (first compound 0.04 µM, partner dose 1 µM): the “cleaved PARP positive nuclei fraction” value was found to be 146%.
The same measure, in the same setting: then `Nc1nc(F)nc2c1ncn2[C@@H]1O[C@H](CO)[C@@H](O)[C@@H]1O` [fludarabine] + CCc1ccc(CCOc2ccc(CC3SC(=O)NC3=O)cc2)nc1 [pioglitazone] (first compound 0.2 µM, partner dose 2 µM), with 86.2%.
On the same count and under the same terms, then `CS(=O)(=O)CCNCc1ccc(-c2ccc3ncnc(Nc4ccc(OCc5cccc(F)c5)c(Cl)c4)c3c2)o1` [lapatinib] + OCCn1cc(-c2cnc3nnn(Cc4ccc5ncccc5c4)c3n2)cn1 [PF04217903] (first compound 0.8 µM, partner dose 1 µM), with 91.8%.
With `CNC(=O)c1cc(Oc2ccc(NC(=O)Nc3ccc(Cl)c(C(F)(F)F)c3)cc2)ccn1` [sorafenib] + Cc1cc([N+](=O)[O-])ccc1NS(=O)(=O)c1cc(Cl)ccc1Cl [FH535] (first compound 0.4 µM, partner dose 1 µM), the “cleaved PARP positive nuclei fraction” value amounted to 168%.

(Values after the supplement of paper PMC4604168 (melanoma cell lines).)
